The target of experiment [1] is T1, Suppressor of Ras (SUR-8), FLAG-tagged (Drosophila) (UniProt Q9VEK6).
T1 sequence: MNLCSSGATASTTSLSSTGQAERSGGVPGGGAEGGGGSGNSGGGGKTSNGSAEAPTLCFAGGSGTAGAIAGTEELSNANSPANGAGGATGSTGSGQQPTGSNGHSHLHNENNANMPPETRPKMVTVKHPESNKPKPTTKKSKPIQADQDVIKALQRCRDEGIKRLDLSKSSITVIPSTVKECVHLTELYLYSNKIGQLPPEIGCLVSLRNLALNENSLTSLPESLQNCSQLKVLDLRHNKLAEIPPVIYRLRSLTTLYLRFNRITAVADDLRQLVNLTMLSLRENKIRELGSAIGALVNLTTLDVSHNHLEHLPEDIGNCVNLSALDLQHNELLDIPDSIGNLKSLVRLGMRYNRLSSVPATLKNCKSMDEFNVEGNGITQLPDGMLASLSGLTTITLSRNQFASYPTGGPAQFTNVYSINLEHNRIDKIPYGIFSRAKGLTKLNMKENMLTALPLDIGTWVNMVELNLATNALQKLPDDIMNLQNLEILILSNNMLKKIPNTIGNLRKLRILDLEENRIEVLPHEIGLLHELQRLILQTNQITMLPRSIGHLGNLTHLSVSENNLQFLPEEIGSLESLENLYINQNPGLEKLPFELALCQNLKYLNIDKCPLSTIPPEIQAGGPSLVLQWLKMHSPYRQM
Nature of the experiment: co-IP; anti-FLAG immunoprecipitation of SUR-8-FLAG from head extracts of flies overexpressing PER, SUR-8-Flag and PP1-87B-HA with tim-GAL4, heads collected at ZT19 (also compared with ZT1); western blot.

Amino acid sequences for entries named in this document (tags omitted).
UniProt P12982: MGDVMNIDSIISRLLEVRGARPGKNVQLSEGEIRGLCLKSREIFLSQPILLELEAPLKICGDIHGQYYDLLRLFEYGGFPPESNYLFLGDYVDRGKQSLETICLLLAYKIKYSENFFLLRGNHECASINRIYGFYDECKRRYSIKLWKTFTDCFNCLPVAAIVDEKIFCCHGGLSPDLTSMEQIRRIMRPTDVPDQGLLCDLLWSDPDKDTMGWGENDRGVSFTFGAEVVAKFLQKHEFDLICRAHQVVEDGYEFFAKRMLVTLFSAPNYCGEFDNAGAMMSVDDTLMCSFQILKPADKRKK

The target in experiment [2] is PERIOD (PER) (Drosophila) (UniProt P07663). Nature of the experiment: co-IP; anti-PER immunoprecipitation from head extracts of flies overexpressing PER, SUR-8-Flag and PP1-87B-HA with tim-GAL4, heads collected at ZT19; also done without SUR-8 overexpression and with Sur-8 knockdown; antibody overnight at 4°C, Protein G beads 2 hours, western blot. (A western blot detects proteins with antibodies after separation by electrophoresis.)

Results are given in words; binding and its absence hold for the method and conditions named. In cells and extracts the contact can be indirect. Some entries that bind do so weakly or less than the wild type. Where a sequence is shown, tags or fusion partners need not be part of it.

As for “PERIOD (PER) (from UniProt P07663 1-1218)”, the binding result in experiment [1] is recorded as “binds”.
For the molecule “protein phosphatase 1 catalytic subunit PP1-87B, HA-tagged (from UniProt P12982 1-302) (enzyme)”, the binding result in experiment [1] and in experiment [2] was “binds” throughout.

B1: Suppressor of Ras (SUR-8), FLAG-tagged (protein, UniProt Q9VEK6 1-641)
chain: T1 sequence
Take B1: the binding result in experiment [2] is listed as “binds”.

These data come from article PMC6874087.
